Data reported in paper doi:10.1101/2020.12.25.417865.
These are yes or no findings as the source states them, for the method shown. In cells and extracts the contact can be indirect. These calls come from enrichment with a bait or labelling near it, and not all partners need be listed. Tags and fused reporters may be left off the sequences shown.

T1: Drs2-GFP (S. cerevisiae) (UniProt P39524)
T1 sequence: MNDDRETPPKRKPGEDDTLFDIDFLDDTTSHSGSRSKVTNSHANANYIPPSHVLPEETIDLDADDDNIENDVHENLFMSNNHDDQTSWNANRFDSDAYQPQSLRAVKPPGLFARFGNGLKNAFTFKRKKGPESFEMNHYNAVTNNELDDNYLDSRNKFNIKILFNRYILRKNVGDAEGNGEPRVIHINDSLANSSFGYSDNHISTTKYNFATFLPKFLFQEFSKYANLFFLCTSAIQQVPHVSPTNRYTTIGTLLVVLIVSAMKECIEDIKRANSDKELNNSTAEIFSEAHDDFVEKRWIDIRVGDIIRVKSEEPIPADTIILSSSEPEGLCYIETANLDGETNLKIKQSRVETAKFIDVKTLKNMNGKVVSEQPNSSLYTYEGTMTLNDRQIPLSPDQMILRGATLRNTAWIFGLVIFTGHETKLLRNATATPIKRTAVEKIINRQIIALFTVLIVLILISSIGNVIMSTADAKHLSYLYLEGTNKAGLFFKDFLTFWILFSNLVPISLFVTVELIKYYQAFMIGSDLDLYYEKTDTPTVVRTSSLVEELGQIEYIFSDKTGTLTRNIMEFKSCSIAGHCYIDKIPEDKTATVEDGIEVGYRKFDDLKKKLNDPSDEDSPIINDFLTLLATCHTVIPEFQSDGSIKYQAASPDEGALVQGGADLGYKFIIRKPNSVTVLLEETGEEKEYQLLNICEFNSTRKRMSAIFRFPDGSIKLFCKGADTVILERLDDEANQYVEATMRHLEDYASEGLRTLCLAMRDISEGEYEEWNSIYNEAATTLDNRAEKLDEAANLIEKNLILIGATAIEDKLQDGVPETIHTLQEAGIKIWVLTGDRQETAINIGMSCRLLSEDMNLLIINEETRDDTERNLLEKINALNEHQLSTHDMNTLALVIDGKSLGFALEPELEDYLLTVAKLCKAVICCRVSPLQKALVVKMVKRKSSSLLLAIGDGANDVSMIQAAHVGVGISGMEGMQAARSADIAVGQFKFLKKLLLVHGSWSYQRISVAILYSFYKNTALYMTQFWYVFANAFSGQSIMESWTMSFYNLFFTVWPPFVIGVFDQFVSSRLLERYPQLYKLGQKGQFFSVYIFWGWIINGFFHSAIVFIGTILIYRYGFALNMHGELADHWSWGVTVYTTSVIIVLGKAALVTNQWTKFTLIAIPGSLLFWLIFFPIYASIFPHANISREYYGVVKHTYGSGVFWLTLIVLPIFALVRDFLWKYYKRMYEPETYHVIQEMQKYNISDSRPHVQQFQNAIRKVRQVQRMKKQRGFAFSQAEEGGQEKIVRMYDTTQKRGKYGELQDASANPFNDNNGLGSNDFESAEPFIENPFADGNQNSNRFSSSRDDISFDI

B1: Trs85 (protein, UniProt P46944 1-698)
chain: MVFSYEHYMNLLFHLDNSKETVPPEIAKRIISNAIAPVITVTSTPLFDKHIQETYKVDSLYMLLRFFGGCVSDRDQANEAKVGQHEHEVCDASDSTDSIPKNKNLEVPNLSKKGSRSRSNSLFQRDSTQSQYIRFTRPLGDLIETRDANDMLFNYHSLEVFLDNYLKLVAANTDEMVPHNLLKKSIYHSFFSLAISSTNNLSPYETFNHPILSLIALDISNGEVYEDARDLLVNFKNLNHNTENFPIFMNTNEMLPVFLLCYNDDSQEEFEKCQALAKKLKKQLFVESILLALWKDSFIYDENSVIQLHQPVMSSLEEILFFLQAPTQTTLSLALINSIYDMLDYLVYDLMIPFMKRKVSFWEETILQPRKSLFNGAKFFKKFMNKNPVNGNHQHNSLTRDSQGNEYFASSSSEFLMRKLADWSMMLSDFKTAYSTYESLMDDLDAFPKYLASCIEWCAVSLLMGAQSIVTVKMIKNDINPLIERALATYENCSRIQRGKGKESNSLDVTEPVRSYETRCMILASELFLSLSNTWTSTPYAIQYLETILDECKLGPCSQIMVWERLSDCYNLRVDPRIKHRVGAMKKDAKDTEDLRGEHKYSTDHFTDEDILSEGLTRRRKAAFFRLIAAKKWAEQKQWRQVSWCLKDIESTYSEIKFLHGNGLILSKLKNQLNLKDVDSAPRPSEKNLTRTSVSFIG
B2: Trs65 (protein, UniProt P32893 1-560)
chain: MECFVPLRCDLDGSNIEQLRQSHLSRKFIIFDEQLNLWLWFQGNSQENKRFVLQNMIILINEAQVTRTSTIDDYFTQVENNENLWRLKNDCCSKILFKSNVVMNNGYNNQIKFVFEYKSVDANFNNQDSLQDPQAKYTLDKYSSEEILPSFEPVYSWSSAATKSSKNTNNHLEKNNRATHRVSSKNSEVHEADVSRNPNTFTLKLQYPIFSLLNMRLRNISLKSEHCILSSLDFQTSKASEQLTKKFIYPQEHNSFLKLNFQEISYKLIDGTSQIELDPICPLKVPLTAFSYDSISATFKLVLLPKSTQPHRVKITLAYELELHPNLKLPVRTSWETEVTLKRSMPISSTSSQYSSNNNNTNHSASFNGAANNVNSGGLANLRLGGVSSSRFSLGAASTTSLVNSKLSNVKFKFINSNIKVIKGEKFTMRLQIINSSSSPLDLVVYYNNTINPIPSANNVRNSNGINNCGMNNGTIPNSPLTLENQYQLHNKYRKIAEGIILLSNDYKIPVVPPRETYFADLRFIGIMSGYYGTLSGLKVLDLNTNELIEVGNGASVLIQ
B3: Vps53 (protein, UniProt P47061 1-822)
chain: MLEGTVDYDPLEDITNILFSKESLNNIDELISITRSYKKQLQEDILKEENELKEHPKNSAEIEASLRKVFQDFKETQDVSASTELTISNLTEGISYLDIAKKNLTHSLTLFQNLKILTDSYIQCNELLSQGSFKKMVSPYKIMCSLAENTFISYKSLDEINYLLSSISRLKGDTLSKIKQNYNALFSGGNISEHDTALTMELREGACELLDCDTSTRAQMIDWCLDKLLFEMKEIFRVDDEAGSLENLSRRYIYFKKILNNFNSKFADYFLKDWEMAVRLTTTFYHITHKDLQTLLKREFKDKNPSIDLFMTALQSTLDFEKYIDVRFSKKIKEPKLSSCFEPYLTLWVSHQNQMMEKKFLSYMSEPKYPSNETESLVLPSSADLFRTYRSVLTQTLELIDNNANDSILTSLANFFSRWLQTYSQKILLPLLLPDNIEVQDKLEAAKYTVLLINTADYCATTIDQLEDKLSEFSGNREKLANSFTKTKNIYDDLLAKGTSFLLNRVIPLDLNFVWREFINNDWSNAAIEDYSRYMVTLKSVLKMPALTDASIKQQQEQPSTLAFILSQFNRDVYKWNFLDKVIDIITTNFVSNTIRLLQPVPPFSLAGSKRKFETRTVVNIGEQLLLDLELLKEIFHTLPESVSNDSDLRENTSYKRVKRHADNNIDQLLKFIKLLMAPLDSADDYYETYSKLTNNNPDSAVWSFVLALKGIPWDLALWKKLWSAYNLETDDTDEGSRPDSNRDLFIFKWDKVLLGQFENNLARMQDPNWSKFVRQDLKISPPVMKRIVSTPQIQQQKEEQKKQSLSVKDFVSHSRFFNRGT
B4: Trs130 (protein, UniProt Q03660 1-1102)
chain: MDKEIYCGSVPVSYFDPFDLFESLRPEFQQILPLDNIHWKAFDGTVRTVNRLPIELIPEGRGEADKSNDEQPFIRFLIVNCISIDQYRAKVRPLVRQWLPNLESVSSSTGEKMIYKPIILLYANSEVVDSNLFKSVSLMEKFGKDFPHVQTLEVRSVYRSPKERQEFWNQFSQKIKASVLSIFQKRLTHLQHSLANLQKGNNFEEQLLTREKLYELYVVFNILEDASLELQKIKKEILRRNMNMPDGKLQVPFESSSKSDESLGSIIIEGTLDKFQLHKYFFIRRLRLLKLEDQTLTAFVGAFQLIKNFIESISIEYRKSVRLLEFKHYFITSMLSYFEFENVSNPLLCEIKAELLMLKRDNWVQGVMATSGYRLMDKNYPNSDVKYKFDLLKETFVDETVFQENFLTLTKEILSLFNKCEGKRQRIVDILSIEIGLLYYQGKKYEEAVSLFLSCYEYYTQTNWNSIGLKILQVFIDSLSHCPKLDVLQIDGESVSASAVLTNAFLNILKLCKDNDSKEIWWKKFMDLQMKNNIHLMYPLDGLFEVTLNSKVHLARANVSAIEVNLKSYGFPEDISTKTMRLSLKNMGGDVIVFGASDFLLKKGENKLILECRDIMYGEFSLLSFEIIVEGITFVKEFPENQDEFIVVPEIYCKESTKVLVKQAHNLNLGEYALELKSVQSDALESLQVEVEVQKNIGNMKNLPVSFSMDEIQARKRYNTPFENVRLEYYLLDQITAFDLIIKTSFTKKNDQGTFGETKKVRIQCYLQLSVSVEDIFKKDIFFFKFLLNSSVREEPVILYSSELSAPDTRNDYNIRGDYIATTPALITFDGNESFINCYEITANNNFDSKDIFNLKVRYNTLKEQLDCFITDAVLIEGDVEWFILFEKWKTFWELEILKKLKYDYDAFKENRIIRLLKTSIDLNKTKSKIRNLCIEKAVLDKILICLNKVSRGIAVCNTDMDEYVRNLVPKQLTVPVQLPGFEQFFHVQFEQMETSHDALHDTIATIGNSLSYTVIVENLSGQWGQDVIDDGGYIFEILSSNEWLIHGQKRCAIKEKRKEFEVHLIPLKKGYLNFPRVEITNINGKSCRVDHSNAFESILIF
B5: Trs120 (protein, UniProt Q04183 1-1289)
chain: MNILKHFPSYVGPSKIRTLVIPIGHWTRKEFNNAVQKLSEFNEIHLSDVTPIDSPIFTPQGFPHGKLFFDFLTIDHDDALELFLYDFEPFRKTFVIIGLVNDYSDPLTNLNFMKEKYPTLISPNLVYASSTPTKELEQTIDTMENVFASSPDMQKNIETIMCDIARNFLTALNSYYSSYKHVTLRSPGAIGGNAVLKTTLIRQNSYTSSSSSTPMSAVQSSVSSSSKAGSVTTASKRLSSFEMTTNSLKRSASLKLATTLSTSENRSQQKSLGRQMKILGNFQLLAGRYVDALNSFVDAITTLYKVRDYLWLGSALDGISICFLLLSYLGLSYQIPQIVSLICPVEKLNFESSSTGISPVDSNSKATASTTASSTPRNSISIAAMQSPRNSIMSLSAPALNIDVENINLPLLIKCISDKVLYYYDLSLMHNSEYAPQVVYCEFLLKTLTFMTSCYKSSEFSKDVLDNIVKNQHRALSDIPNSPMFPRFEVYFYSNKLFELQLKEMQVEAQIKIYSTMAEVYRLLGYKRKQLFVLRLLMVALLATPNKIAWHPDYRTLIDTIIELLNINESEAKINVDDPSQSTWLILQKKILQLCIKVSRKINDFEYVAKFSSILITKYTHLLNQSEQDALFKEYIQPSITNESITSYWDPFILREVVINRILDSDPTSNEIPLESDVSSLESLENRQKTQDINPQEVFNPFKRVQPTSFVSNNSTKVPILVFLVGDKAEFTCRVQNPFKFDFTINDIQLDEEISEFCEIDRKAVSYSGPYNVKAESIRSITLPLIIKKPTYKKIYEISCLKISILKLPLQKFDIINDSRRSNPVEEEAEYSKCIYGKLKIKILPEQPQLELLSTSKMTRNSWMMLDGTKTDFHITVRNKSLSCAINHIKIIPMNNIEQMLKPDYWKKMPPDDLYIMEKQLDWLSKSCVRIIKLPTVIKPNETITFDLELDNTAVPFNFTGFDLLIEYGMSATDESCIYLKKLSIPYEVTLRRTIEVPSMDIIPLNELFSSQVENVDWIEYVMSKIRAESNLHSRDFILLLLDFRNSWIDGIKLNVQFEDFTSNEYHVEASHTSRIIVPIKKIDYKKYNFENTPIPRIYPGRQFIQSGLNEEQTIEMRQKFWCREHIISKLKCNWKLTTDQSVTGSVDFNKFIEKFDHKMVYTIYPGRLFYGVQLLLDEPKVKVGEIINLKIITEPTSTCRRKQNSTVNFLDIVIFDSKTSKILPRSNRRILYNGSLTKPISTTKVSEINLEIIPIEKGRYEFSVCISKSNNQDGIIQFDSENVILSVI

target: T1, Drs2-GFP (S. cerevisiae); assay: cross-linking + affinity purification with mass spectrometry

binding, binds:
B1
B2
B3
B4
B5
